Source: EP2899279A1

Target: Arabis mosaic virus isolate S (Arabis mosaic virus, isolate S)
Assay: DAS-ELISA: virus captured by anti-ArMV polyclonals, StrepII tagged Nb23 as detection antibody

B1: StrepII tagged Nb23 (VHH, not shown: small tags and cut ends)
VHH: QVQLQESGGGSVQVGGSLRVACAASGDTFSGYLAAWFRQAPGKGREGVAAINSKRHTTSYADSVKGRFTISKDNADNIMYLEMNSLKPEDTAIYYCAAADAIGLAEYWSTPTLSAARYKYWGQGTQVTVSS
- binding: no binding (tested: 1 µg/ml)

No constants are given. Whether binding was seen depends on the method and setting. Tags and fused reporters may be left off the sequences shown.
